## Library screen at single concentrations

Protein sequences, listed by entry. Tags and fused reporters are not part of them. Residues count along the entry.
UniProt A4I591, 1-473: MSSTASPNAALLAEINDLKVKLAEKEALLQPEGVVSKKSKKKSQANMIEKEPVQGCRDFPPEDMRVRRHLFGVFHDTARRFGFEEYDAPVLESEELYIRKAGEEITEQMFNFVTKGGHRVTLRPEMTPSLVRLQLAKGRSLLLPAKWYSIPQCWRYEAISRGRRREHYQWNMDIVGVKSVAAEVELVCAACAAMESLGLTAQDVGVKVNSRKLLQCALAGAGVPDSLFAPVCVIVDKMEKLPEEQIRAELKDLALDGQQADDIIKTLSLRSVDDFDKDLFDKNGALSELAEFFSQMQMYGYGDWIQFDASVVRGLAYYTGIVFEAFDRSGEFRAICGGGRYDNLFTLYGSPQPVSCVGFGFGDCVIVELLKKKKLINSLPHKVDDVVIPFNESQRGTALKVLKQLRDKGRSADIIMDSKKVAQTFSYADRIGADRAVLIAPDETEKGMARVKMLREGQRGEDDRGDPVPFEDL
UniProt I6X8D2, whole entry: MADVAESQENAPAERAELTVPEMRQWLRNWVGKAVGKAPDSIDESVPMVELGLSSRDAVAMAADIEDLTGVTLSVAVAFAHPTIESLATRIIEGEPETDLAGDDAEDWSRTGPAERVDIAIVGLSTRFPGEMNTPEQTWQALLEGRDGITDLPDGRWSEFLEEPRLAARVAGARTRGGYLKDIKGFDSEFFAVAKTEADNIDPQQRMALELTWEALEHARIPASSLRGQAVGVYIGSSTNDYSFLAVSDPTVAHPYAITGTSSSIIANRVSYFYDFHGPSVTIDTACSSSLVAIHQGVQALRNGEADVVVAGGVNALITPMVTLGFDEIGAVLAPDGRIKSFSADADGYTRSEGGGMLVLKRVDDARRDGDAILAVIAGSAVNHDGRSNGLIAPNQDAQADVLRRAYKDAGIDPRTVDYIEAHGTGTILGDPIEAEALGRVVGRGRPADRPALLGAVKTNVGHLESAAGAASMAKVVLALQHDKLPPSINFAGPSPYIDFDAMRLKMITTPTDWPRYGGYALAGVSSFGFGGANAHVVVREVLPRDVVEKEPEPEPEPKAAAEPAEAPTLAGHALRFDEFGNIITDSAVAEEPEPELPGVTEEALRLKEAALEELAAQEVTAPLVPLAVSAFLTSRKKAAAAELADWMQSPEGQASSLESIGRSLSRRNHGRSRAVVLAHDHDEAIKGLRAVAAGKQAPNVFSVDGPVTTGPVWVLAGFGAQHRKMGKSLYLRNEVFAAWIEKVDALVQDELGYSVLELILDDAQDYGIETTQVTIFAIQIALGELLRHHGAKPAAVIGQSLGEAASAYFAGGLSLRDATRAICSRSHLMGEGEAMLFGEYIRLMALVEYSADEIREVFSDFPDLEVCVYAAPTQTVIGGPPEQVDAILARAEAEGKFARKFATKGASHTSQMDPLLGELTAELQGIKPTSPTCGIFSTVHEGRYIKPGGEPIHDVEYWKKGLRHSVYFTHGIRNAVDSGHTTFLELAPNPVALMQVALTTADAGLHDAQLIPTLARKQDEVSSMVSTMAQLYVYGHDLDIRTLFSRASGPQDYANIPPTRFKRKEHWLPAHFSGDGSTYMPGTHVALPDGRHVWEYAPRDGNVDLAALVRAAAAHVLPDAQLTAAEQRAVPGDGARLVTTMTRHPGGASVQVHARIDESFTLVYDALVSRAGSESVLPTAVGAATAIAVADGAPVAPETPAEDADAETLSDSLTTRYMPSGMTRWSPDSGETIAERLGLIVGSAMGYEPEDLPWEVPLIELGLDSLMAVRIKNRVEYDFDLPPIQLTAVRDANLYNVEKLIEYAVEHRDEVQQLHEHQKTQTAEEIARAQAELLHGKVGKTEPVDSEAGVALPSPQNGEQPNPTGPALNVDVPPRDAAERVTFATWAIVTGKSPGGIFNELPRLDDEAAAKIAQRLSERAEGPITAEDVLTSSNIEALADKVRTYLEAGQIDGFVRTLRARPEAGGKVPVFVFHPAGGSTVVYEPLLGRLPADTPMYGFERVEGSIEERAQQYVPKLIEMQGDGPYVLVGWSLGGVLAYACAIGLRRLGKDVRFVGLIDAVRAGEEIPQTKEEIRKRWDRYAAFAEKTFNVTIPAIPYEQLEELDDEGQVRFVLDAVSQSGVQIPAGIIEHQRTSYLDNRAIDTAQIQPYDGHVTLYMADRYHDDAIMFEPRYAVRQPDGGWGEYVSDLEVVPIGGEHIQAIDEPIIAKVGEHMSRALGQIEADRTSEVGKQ

Source: ChEMBL document CHEMBL3988442, “University of Dundee, Small-Polar-MMV Screening Library” (2021).

LiHisRS: 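Enzyme assay of histidyl-tRNA synthetase; the read-out is not stated. Target: Histidine-tRNA ligase, Leishmania infantum (UniProt A4I591). Concentration: 30 µM. Direction is inferred from retests: higher values go with stronger inhibition. The assay is labelled LdHisRS but filed under L. infantum. About 69,000 compounds were tested under these conditions; 0.6% (about 410) showed 50% or more at least once.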
Pks13 thioesterase: 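Polyketide synthase Pks13, Mycobacterium tuberculosis (UniProt I6X8D2). Enzyme assay of the thioesterase domain of polyketide synthase 13; the read-out is not stated. Concentration: 30 µM. The record gives no direction; the compounds picked for IC50 retests had high values, so higher reads as stronger inhibition. About 67,000 compounds were tested under these conditions; 0.46% (about 300) showed 50% or more at least once.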

Each number is a percent effect as filed.
The controls that fix the scale are not given in the record; negative values are as filed.
This is an unselected part of the compounds tested.

compound: Cn1nccc1C1CCN(CC(=O)NCC2CC2)CC1
LiHisRS: 15.25
Pks13 thioesterase: -5.783

compound: c1cnc(N2CC[C@@H]3O[C@@H](COCc4cccnc4)CC[C@@H]32)nc1
LiHisRS: 7.895
Pks13 thioesterase: 23.21

compound: CC(C)(C)c1oc(C(N)=O)cc1CN1CCCCC(N)C1 (stereo not drawn)
LiHisRS: 18.28
Pks13 thioesterase: -9.464

compound: Cc1ccccc1N1CC(C)N(C(=O)CCn2cccn2)CC1=O (stereo not drawn)
LiHisRS: -35.56
Pks13 thioesterase: -5.09

compound: Cc1ccc(-c2cc(C(=O)NC(C)C(=O)N3CCCCC3)on2)cc1 (stereo not drawn)
LiHisRS: 14.29
Pks13 thioesterase: -13.81

compound: O=C(CCc1ccc(Cl)cc1)N1CCC(O)(C(F)(F)F)C1 (stereo not drawn)
LiHisRS: 9.649
Pks13 thioesterase: 4.745

compound: CCn1nc(C)c2nn(CC(=O)NC3CCSCC3)cc21
LiHisRS: 7.08
Pks13 thioesterase: -4.296

compound: O=C(COCc1ccccc1)N1CCC(OCc2cccnc2)CC1
LiHisRS: 13.33
Pks13 thioesterase: 8.509

compound: COCCCNC(=O)c1cn(C(C)(C)C)c2ncccc12
LiHisRS: 19.8
Pks13 thioesterase: 0.7302

compound: Cc1noc(C)c1CN1C[C@@H]2CN(C(=O)c3cscn3)C[C@@H]2C1
LiHisRS: 15.79
Pks13 thioesterase: -44.11

compound: CSc1ccc(CNC(c2ccc(F)cc2)c2nccn2C)cc1 (stereo not drawn)
LiHisRS: 33.03
Pks13 thioesterase: -12.98

compound: c1ccc(-n2cc(CNC3CCc4ncnn4C3)nn2)cc1 (stereo not drawn)
LiHisRS: 15.74
Pks13 thioesterase: -11.37

compound: CCCc1n[nH]c(C2CN(C(=O)c3ccc[nH]3)CCO2)n1 (stereo not drawn)
LiHisRS: 6.25
Pks13 thioesterase: -9.79

compound: Cc1nc2n(n1)CC(NCc1nc3ccccc3o1)CC2 (stereo not drawn)
LiHisRS: 15.87
Pks13 thioesterase: -5.666

compound: N#Cc1cccc(OCCN2CCCC2C(=O)Nc2nccs2)c1 (stereo not drawn)
LiHisRS: 3.571
Pks13 thioesterase: -6.381

compound: Cc1n[nH]c2ncc(CNC3CCCN(c4ncccn4)C3)cc12 (stereo not drawn)
LiHisRS: 14.29
Pks13 thioesterase: -25.73

compound: CCn1ncnc1CN1CCC(CNC(=O)c2cccnc2O)C1 (stereo not drawn)
LiHisRS: 17.98
Pks13 thioesterase: 0.9483

compound: COCc1noc(-c2ccc(N3CCCCC3CCCO)nc2)n1 (stereo not drawn)
LiHisRS: 11.11
Pks13 thioesterase: 4.074

compound: CC(C)c1nc(CN2CCCCC2Cn2cncn2)cs1 (stereo not drawn)
LiHisRS: 17.39
Pks13 thioesterase: -13.34

compound: COCCN1CCC(CNC(=O)C2(NC(C)=O)CCCCC2)CC1
LiHisRS: 14.04
Pks13 thioesterase: -19.32

compound: Cc1ccoc1C(=O)N1Cc2c(CN3CCCCC3)nn(C)c2C1
LiHisRS: 4.425
Pks13 thioesterase: 8.132

compound: Cc1cc2c(cc1Cl)C=CC1(CCN(C(=O)N3CCOCC3)CC1)O2
LiHisRS: 8.054
Pks13 thioesterase: -65.81

compound: COc1cc(C(C)NCc2cscn2)ccc1SC(F)F (stereo not drawn)
LiHisRS: 6.452
Pks13 thioesterase: -9.184

compound: CCn1ncc2c1CN(C(=O)c1cscn1)CC2COC (stereo not drawn)
LiHisRS: 11.93
Pks13 thioesterase: 2.456

compound: CC(C)c1cc(=O)[nH]c(-n2nc(C3CC3)cc2N)n1
LiHisRS: 25.64
Pks13 thioesterase: -1.593

compound: CSCC[C@H](NC(=O)Cn1ccc2ccc(Cl)cc21)C(=O)O
LiHisRS: 15.79
Pks13 thioesterase: -2.743

compound: CCN1CCN(CCNC(=O)c2sc(C)nc2C)CC1
LiHisRS: 15.38
Pks13 thioesterase: -17.52

compound: Cc1ccc(NC2CCN(C(=O)c3cccc(F)c3F)CC2)nn1
LiHisRS: 8.108
Pks13 thioesterase: -8.37

compound: CC(OCC1CC1)C(=O)Nc1nccn1Cc1ccccc1 (stereo not drawn)
LiHisRS: 6.202

compound: O=C(CCn1nc(-c2cccs2)oc1=O)Nc1cccc(F)c1
LiHisRS: 11.61
Pks13 thioesterase: -9.892

compound: Fc1ccc(CN2CCC3(CC2)CN(c2ccccn2)CCO3)cc1
LiHisRS: 4.11
Pks13 thioesterase: -93.69

compound: O=C1Cc2cc(NC(=O)N3CCCN(Cc4cccs4)CC3)ccc2N1
LiHisRS: 5.714
Pks13 thioesterase: -29.35

compound: CN(c1ncc(C(N)=O)cc1Cl)C1CCC(c2ccccc2)CC1 (stereo not drawn)
LiHisRS: 15.87
Pks13 thioesterase: -15.31

compound: O=C(c1cccc(S(=O)(=O)NCCCc2ncc[nH]2)c1)N1CCOCC1
LiHisRS: -26.92
Pks13 thioesterase: -8.239

compound: Cn1c(CCC(=O)N2CCC3(CCCO3)CC2)nc2cccnc21
LiHisRS: 6.557
Pks13 thioesterase: -4.393

compound: c1coc(CN2CCC3(CC2)COC(COCC2CC2)C3)c1 (stereo not drawn)
LiHisRS: -1.923
Pks13 thioesterase: -57.38

compound: CCC(NC(=O)c1cnc(-c2cccnc2)nc1)c1ccnn1C (stereo not drawn)
LiHisRS: 12.2
Pks13 thioesterase: 11.14

compound: Nc1nc(CN2CCN(c3nccs3)CC2)cs1
LiHisRS: 17.6
Pks13 thioesterase: -1.938